Measured values published in paper PMC7600006, “Dissecting the Cytochrome P450 OleP Substrate Specificity: Evidence for a Preferential Substrate” (Biomolecules, 2020).
These are yes or no findings as the source states them, for the method shown.

Biological target: cytochrome P450 OleP (Streptomyces antibioticus) (UniProt Q59819)
Test: SEC; gel filtration on BioFox 17/1200 SEC (Knauer) in 20 mM Tris·HCl, 200 mM NaCl, pH 8.0; both purified

B1: cytochrome P450 OleP (enzyme, UniProt Q59819 1-407)
chain: MTDTHTGPTPADAVPAYPFSLPHALDLDPHYAELRRDEPVSRVRLPYGEGTAWLVTRMSDARIVLGDSRFSTAAATDPATPRMFPTPPEPDGVLAQDPPDHTRLRRLVGKAFTARRVEEMRPRVRSLVDSLLDDMVAHGSPADLVEFLAVPFPVAVICELLGVPLEDRDLFRTFSDAMLSSTRLTAAEIQRVQQDFMVYMDGLVAQRRDAPTEDLLGALALATDNDDHLTKGEIVNMGVSLLIAGHETSVNQITNLVHLLLTERKRYESLVADPALVPAAVEEMLRYTPLVSAGSFVRVATEDVELSTVTVRAGEPCVVHFASANRDEEVFDHADELDFHRERNPHIAFGHGAHHCIGAQLGRLELQEALSALVRRFPTLDLAEPVAGLKWKQGMLIRGLERQIVSW
**Q.** Which binding does the source give for B1 here?
**A.** The binding was “no binding”.
